# No constants are given. Whether binding was seen depends on the method and setting. In cells and extracts the contact can be indirect. These calls come from enrichment with a bait or labelling near it, and not all partners need be listed. Tags and fused reporters may be left off the sequences shown.
# T1: FLAG-ATGL (adipose triglyceride lipase) (not stated (human or mouse cDNA cloned)) (UniProt Q8BJ56)
# T1 sequence: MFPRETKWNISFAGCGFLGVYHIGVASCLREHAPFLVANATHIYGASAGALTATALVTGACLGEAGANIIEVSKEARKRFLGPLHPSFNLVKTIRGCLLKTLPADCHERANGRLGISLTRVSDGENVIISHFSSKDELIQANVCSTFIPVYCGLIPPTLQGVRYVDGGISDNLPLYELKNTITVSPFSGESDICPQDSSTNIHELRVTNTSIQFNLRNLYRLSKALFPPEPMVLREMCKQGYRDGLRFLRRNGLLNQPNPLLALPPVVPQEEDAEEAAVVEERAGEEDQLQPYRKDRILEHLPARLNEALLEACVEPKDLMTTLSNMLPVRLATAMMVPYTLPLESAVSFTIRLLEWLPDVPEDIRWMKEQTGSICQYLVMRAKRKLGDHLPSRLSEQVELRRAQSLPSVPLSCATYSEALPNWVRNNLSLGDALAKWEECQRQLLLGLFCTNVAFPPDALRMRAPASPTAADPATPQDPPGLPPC
# Molecular target: T1, FLAG-ATGL (adipose triglyceride lipase) (not stated (human or mouse cDNA cloned))
# Experiment: affinity purification with mass spectrometry; FLAG-ATGL expressed in HCT116 cells, hypoxia 24 hr; anti-FLAG M2 agarose gels, 4 hr at 4°C, lysis buffer 50 mM Tris-HCl pH 7.4, 150 mM NaCl, 1% Triton X-100, 1 mM DTT; eluate on 10-20% SDS-PAGE, gel portions digested with trypsin, LC-ESI-MS/MS
binder,measurement,value
"HIG2 (hypoxia-inducible gene 2 protein), endogenous (protein, UniProt Q9Y5L2 1-63) MKHVLNLYLLGVVLTLLSIFVRVMESLEGLLESPSPGTSWTTRSQLANTEPTKGLPDHPSRSM",binding,binds
